These are yes or no findings as the source states them, for the method shown. Binding seen in cells or lysates may run through a third protein. Some entries that bind do so weakly or less than the wild type. For some of these results: Where a sequence is shown, tags or fusion partners need not be part of it.

Chains of the proteins cited; added tags and fusions are not shown. Lines headed by an entry give the natural chain unless they say otherwise; changes in a name come on top. A line that says so, or that is headed by a name, gives the form on record, which may keep a tag or linker. Residues count along the entry.
FLAG-tagged EphB1 wild type (Q8CBF3, residues 18-984): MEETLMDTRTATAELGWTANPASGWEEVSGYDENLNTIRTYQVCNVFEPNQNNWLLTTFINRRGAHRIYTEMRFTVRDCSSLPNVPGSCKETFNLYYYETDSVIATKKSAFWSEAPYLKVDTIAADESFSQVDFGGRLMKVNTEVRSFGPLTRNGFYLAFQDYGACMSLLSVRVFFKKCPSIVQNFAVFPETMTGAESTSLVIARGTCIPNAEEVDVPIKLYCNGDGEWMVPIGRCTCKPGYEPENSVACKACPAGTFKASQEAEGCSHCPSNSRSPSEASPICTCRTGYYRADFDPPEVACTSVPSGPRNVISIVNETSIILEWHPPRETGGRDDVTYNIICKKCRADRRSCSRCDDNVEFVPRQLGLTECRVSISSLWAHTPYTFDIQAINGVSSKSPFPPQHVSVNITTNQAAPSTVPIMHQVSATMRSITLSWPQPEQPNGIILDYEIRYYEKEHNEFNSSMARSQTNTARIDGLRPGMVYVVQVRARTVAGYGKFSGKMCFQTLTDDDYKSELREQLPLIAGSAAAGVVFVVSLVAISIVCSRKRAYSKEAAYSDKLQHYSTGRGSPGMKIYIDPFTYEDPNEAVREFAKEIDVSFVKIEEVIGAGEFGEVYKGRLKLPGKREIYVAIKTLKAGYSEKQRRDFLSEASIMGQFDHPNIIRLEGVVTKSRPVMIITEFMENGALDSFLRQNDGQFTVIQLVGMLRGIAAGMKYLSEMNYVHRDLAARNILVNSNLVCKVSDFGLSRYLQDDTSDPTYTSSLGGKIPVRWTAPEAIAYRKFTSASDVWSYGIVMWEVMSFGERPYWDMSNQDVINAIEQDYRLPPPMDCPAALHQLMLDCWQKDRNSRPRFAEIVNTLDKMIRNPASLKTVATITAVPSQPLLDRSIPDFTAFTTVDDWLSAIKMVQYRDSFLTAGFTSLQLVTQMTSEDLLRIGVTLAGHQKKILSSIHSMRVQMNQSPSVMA
FLAG-tagged EphB1 Y502F (Q8CBF3, form named): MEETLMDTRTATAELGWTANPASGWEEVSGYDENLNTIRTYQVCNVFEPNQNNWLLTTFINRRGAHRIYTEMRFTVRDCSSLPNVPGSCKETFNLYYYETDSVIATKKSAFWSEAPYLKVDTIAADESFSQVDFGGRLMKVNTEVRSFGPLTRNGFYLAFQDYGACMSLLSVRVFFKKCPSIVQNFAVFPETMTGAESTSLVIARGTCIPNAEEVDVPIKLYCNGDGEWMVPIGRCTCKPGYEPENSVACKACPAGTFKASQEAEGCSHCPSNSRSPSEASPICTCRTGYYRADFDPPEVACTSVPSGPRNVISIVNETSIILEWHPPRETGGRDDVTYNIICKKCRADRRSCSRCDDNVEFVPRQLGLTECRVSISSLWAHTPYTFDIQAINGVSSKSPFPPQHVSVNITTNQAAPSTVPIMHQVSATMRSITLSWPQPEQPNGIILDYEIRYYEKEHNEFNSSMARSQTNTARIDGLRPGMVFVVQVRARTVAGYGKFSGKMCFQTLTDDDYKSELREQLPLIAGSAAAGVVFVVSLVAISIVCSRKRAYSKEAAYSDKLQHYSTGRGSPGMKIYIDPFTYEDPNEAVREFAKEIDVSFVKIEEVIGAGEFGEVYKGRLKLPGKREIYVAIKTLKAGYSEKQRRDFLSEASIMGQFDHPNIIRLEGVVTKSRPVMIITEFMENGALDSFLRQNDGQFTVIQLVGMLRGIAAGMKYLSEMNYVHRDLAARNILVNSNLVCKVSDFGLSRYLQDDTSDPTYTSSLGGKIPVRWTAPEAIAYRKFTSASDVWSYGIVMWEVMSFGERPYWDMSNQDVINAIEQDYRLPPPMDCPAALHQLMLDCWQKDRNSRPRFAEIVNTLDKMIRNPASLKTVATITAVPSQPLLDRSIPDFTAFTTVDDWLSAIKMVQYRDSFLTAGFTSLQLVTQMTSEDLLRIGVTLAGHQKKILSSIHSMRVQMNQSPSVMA
FLAG-tagged EphB1 Y502E (Q8CBF3, form named): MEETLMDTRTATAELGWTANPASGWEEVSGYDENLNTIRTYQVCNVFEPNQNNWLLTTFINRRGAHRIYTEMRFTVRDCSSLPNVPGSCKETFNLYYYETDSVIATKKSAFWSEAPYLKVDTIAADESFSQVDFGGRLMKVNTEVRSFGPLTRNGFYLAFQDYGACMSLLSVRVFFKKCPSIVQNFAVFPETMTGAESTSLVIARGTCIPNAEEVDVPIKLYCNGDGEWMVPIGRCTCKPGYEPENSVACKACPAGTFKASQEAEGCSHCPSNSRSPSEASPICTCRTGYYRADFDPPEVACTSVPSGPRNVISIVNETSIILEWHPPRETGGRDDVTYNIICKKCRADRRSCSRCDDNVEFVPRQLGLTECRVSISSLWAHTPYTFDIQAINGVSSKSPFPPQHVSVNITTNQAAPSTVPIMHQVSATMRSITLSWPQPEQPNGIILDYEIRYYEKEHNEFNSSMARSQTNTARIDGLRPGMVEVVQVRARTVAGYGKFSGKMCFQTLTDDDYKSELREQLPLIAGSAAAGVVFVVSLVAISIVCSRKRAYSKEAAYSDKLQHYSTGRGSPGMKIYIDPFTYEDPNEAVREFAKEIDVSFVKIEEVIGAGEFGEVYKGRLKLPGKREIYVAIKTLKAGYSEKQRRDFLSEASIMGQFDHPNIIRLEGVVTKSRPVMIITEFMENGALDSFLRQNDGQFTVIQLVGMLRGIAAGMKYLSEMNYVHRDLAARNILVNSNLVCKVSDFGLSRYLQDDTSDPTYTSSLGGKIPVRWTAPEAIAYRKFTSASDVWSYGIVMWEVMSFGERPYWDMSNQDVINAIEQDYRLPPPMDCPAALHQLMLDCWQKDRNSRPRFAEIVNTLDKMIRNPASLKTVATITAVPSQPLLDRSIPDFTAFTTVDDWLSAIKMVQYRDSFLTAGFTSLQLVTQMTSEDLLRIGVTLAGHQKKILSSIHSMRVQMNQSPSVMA

Experimental findings from article PMC5515392 are described below.

The target of one assay is T1, FLAG-tagged EphA8 (UniProt O09127).
T1 sequence: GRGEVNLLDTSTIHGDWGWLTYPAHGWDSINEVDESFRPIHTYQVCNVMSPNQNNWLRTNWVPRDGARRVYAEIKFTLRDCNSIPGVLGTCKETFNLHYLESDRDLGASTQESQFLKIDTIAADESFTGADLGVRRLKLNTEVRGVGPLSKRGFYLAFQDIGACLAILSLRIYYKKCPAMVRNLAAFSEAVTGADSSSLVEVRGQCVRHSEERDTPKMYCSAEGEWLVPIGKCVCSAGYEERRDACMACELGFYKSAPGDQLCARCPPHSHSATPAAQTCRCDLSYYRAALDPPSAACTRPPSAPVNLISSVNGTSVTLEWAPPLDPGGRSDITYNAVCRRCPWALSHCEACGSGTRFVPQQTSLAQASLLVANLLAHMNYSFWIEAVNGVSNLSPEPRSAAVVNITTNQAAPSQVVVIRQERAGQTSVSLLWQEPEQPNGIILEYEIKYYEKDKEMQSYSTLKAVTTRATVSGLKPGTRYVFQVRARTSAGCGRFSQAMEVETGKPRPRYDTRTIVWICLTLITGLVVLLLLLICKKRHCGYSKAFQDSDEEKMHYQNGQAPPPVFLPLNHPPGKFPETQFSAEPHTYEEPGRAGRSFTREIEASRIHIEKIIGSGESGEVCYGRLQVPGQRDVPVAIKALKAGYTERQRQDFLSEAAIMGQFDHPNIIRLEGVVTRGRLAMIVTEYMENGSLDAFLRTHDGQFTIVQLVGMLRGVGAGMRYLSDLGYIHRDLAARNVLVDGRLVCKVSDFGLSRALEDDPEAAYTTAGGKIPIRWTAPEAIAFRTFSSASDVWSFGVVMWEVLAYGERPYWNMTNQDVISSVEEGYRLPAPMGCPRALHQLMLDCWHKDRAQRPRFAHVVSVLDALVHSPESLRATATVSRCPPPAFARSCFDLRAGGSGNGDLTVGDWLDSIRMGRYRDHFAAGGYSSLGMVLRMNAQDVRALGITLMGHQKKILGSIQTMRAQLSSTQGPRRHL
As to the kind of experiment: co-IP; FLAG-tagged Eph receptor immunoprecipitated (anti-FLAG or anti-EphB2) from lysates of HEK293T cells co-transfected with HA-GluN1 and GluN2B; blot for HA or GluN1.

The target in another assay is FLAG-tagged EphB1 Y502F (UniProt Q8CBF3). The description is as above.
The next assay deals with FLAG-tagged EphB1 Y502E (UniProt Q8CBF3). Described as above.
In assay [1] the target is FLAG-tagged EphB1 wild type (UniProt Q8CBF3). Described as above.
The target in assay [2] is GluN2B-containing NMDAR (HA-GluN1 co-expressed with GluN2B) (UniProt P35439). As to the kind of experiment: co-IP; GluN1 immunoprecipitated with anti-GluN1 from lysates of HEK293T cells co-transfected with GluN1, GluN2B and a FLAG-tagged Eph receptor; blot for FLAG or EphB2.

Take “GluN2B-containing NMDAR (HA-GluN1 co-expressed with GluN2B) (from UniProt P35439 19-938; Q00960 27-1482) (complex)”: the binding entry (in the assay with FLAG-tagged EphA8; with FLAG-tagged EphB1 Y502F; with FLAG-tagged EphB1 Y502E; in assay [1]) was “binds” each time.

For the substance “FLAG-tagged EphB1 wild type (from UniProt Q8CBF3 18-984) (receptor)”, the binding entry in assay [2] is listed as “binds”.

On to “FLAG-tagged EphB1 Y502E (from UniProt Q8CBF3 18-984) (receptor)”, for which the binding result in assay [2] is reported as “binds”.

Consider “FLAG-tagged EphB1 Y502F (from UniProt Q8CBF3 18-984) (receptor)”, for which the binding result in assay [2] is on record as “binds”.
